From paper PMC10405847
Results are given in words; binding and its absence hold for the method and conditions named. In cells and extracts the contact can be indirect. Some results given as binding are weak or reduced against the parent protein; the word gives no strength.

Amino acid sequences for entries named in this document (tags omitted). A change or cut given only in a name is not applied to a line headed by its entry.
UniProt Q60843: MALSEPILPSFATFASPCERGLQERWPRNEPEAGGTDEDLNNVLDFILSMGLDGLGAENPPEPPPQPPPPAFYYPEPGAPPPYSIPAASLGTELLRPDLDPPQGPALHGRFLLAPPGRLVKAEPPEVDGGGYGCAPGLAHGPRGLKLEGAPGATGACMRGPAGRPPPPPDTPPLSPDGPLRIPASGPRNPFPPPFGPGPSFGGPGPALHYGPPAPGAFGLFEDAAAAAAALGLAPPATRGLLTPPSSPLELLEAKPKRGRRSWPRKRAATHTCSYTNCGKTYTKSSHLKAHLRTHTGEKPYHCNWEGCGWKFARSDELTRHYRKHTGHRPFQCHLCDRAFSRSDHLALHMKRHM
UniProt Q9EPK5: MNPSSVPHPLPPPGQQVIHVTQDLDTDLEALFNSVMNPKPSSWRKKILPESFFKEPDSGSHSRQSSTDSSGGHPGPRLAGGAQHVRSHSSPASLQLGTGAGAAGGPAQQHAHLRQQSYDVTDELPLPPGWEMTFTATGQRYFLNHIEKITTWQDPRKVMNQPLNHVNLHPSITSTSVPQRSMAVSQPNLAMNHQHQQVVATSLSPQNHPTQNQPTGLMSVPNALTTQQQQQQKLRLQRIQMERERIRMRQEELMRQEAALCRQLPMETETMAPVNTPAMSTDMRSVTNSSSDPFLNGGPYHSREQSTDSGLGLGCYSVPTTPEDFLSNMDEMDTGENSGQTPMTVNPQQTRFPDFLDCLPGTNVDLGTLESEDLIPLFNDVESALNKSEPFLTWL

What was measured:
[1] = target: Myc-tagged KLF2 (UniProt Q60843); experiment: co-IP; HEK293T transfected with wild-type or deletion mutants of TAZ and Myc-tagged KLF2; immunoprecipitation with Myc-tag antibodies, immunoblot
[2] = target: Transcriptional co-activator with PDZ-binding motif (TAZ), endogenous in mouse liver sinusoidal endothelial cells (mouse (endogenous in LSECs)) (UniProt Q9EPK5); experiment: co-IP; isolated mouse LSECs immunoprecipitated with anti-TAZ antibodies, KLF2 found by immunoblot; IgG as immunoprecipitation control
[3] = target: FLAG-tagged TAZ (wild type) (UniProt Q9EPK5); experiment: co-IP; HEK293T transfected with FLAG-tagged TAZ and Myc-tagged KLF2; lysis in RIPA buffer, anti-FLAG antibody at 4 °C overnight, protein G beads, immunoblot

Row | binding [1] | Substance | further results
1 | binds | FLAG-tagged TAZ (wild type) (from UniProt Q9EPK5 1-395) | 
2 |  | Krüppel-like factor 2 (KLF2), endogenous in mouse liver sinusoidal endothelial cells (from UniProt Q60843 1-354) | binding [2]: binds
3 |  | Myc-tagged KLF2 (from UniProt Q60843 1-354) | binding [3]: binds
4 | no binding | TAZ164-395 (from UniProt Q9EPK5 164-395) (domain or fragment) | 
